Assay results reported in patent publication US20220298254A1 (HUMMINGBIRD BIOSCIENCE HOLDINGS PTE, published 2022).
These are yes or no findings as the source states them, for the method shown. Some entries that bind do so weakly or less than the wild type.

Target: RhCD47
Experiment: ELISA, plate-coated rhesus macaque CD47, antibody titrated

B1: anti-CD47 clone 1-1-A1_BM IgG1 (antibody, V domains shown)
VH: QVQLQQSGPDLKKPGASVKVSCKVSGYTFTNYVIHWVRQKPGQGLEWMGYINPYNDGTKSNEKFKGKATLTSDKSSTSAYMELSSLTSEDTAVYYCASGGYYTMDYWGQGTSVTVSS
VL: DVVMTQTPLSLPVTLGDQASISCRSSQHLEYSNGYSYLHWYQQRPGQSPQLLIYKISNRFSGVPDRFSGSGSGTDFTLKISRVEAEDLGVYYCSQSTHVPYTFGGGTKLEIKR
binding: binds
